Results are given in words; binding and its absence hold for the method and conditions named. For some of these results: Binding seen in cells or lysates may run through a third protein. Some entries that bind do so weakly or less than the wild type.
How the values were obtained:
[1] = molecular target: T1, pLexA-DIR-metadherin-aa73-582 (UniProt Q86UE4); assay: two-hybrid; bait pLexA-DIR-metadherin-aa73-582, prey a human placental cDNA library; beta-galactosidase assay; done by Dualsystems Biotech AG
T1 sequence: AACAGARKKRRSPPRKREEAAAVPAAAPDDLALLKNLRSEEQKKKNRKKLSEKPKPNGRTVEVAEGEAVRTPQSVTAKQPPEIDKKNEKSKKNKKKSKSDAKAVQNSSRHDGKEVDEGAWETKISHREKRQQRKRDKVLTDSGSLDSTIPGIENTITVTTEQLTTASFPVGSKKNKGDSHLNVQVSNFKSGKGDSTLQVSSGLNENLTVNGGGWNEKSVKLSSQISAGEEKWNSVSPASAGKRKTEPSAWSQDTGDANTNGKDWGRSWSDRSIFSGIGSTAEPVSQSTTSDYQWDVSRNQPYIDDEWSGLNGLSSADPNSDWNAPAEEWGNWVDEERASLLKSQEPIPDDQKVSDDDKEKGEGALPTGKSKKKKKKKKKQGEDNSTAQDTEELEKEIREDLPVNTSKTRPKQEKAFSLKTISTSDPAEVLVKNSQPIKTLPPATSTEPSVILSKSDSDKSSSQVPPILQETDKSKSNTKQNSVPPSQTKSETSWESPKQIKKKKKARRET

Amino acid sequences for entries named in this document (tags omitted).
UniProt Q07666: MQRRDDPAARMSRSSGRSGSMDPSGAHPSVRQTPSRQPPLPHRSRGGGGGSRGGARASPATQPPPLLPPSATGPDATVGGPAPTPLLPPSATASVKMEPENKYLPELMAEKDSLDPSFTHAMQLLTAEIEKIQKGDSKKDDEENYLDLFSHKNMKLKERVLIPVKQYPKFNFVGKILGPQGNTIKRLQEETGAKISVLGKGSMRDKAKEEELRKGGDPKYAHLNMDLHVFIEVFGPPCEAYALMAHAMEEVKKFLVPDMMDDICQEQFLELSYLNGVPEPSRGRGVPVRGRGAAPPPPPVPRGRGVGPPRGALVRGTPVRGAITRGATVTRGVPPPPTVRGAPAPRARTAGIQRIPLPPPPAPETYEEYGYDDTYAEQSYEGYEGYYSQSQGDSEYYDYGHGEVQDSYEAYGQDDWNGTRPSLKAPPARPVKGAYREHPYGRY

[2] = molecular target: T2, endogenous metadherin (LNCaP) (human (endogenous in LNCaP)) (UniProt Q86UE4); assay: co-IP; endogenous metadherin precipitated from 1 mg LNCaP whole cell lysate, 4 °C; rabbit IgG as negative control
T2 sequence: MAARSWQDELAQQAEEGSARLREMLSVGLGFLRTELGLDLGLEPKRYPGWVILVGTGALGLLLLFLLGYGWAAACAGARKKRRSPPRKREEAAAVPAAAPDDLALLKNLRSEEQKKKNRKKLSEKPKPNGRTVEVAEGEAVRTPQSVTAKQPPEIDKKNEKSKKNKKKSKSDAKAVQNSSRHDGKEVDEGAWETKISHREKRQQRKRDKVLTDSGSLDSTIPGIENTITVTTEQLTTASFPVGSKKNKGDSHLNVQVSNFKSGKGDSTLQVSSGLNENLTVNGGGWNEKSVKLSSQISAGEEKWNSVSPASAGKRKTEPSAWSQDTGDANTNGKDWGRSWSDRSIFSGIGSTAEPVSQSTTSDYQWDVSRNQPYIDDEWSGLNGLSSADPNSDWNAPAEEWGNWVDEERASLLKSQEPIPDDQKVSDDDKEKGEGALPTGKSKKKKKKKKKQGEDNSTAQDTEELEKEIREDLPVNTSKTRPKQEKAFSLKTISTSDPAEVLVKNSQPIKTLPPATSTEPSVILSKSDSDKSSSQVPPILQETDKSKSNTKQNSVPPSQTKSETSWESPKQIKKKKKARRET

[3] = molecular target: endogenous Sam68 (LNCaP) (human (endogenous in LNCaP)) (UniProt Q07666); assay: co-IP; endogenous SAM68 precipitated with an anti-SAM68 antibody from 1 mg LNCaP protein lysate, 4 °C; rabbit IgG as negative control

Molecule: YTHDC1 aa54-355 (clone from the human placental cDNA library) (from UniProt Q96MU7 54-355) (domain or fragment)
- binding [1]: binds

B1: endogenous T-STAR (LNCaP) (protein, UniProt O75525 1-346)
chain: MEEKYLPELMAEKDSLDPSFTHALRLVNQEIEKFQKGEGKDEEKYIDVVINKNMKLGQKVLIPVKQFPKFNFVGKLLGPRGNSLKRLQEETLTKMSILGKGSMRDKAKEEELRKSGEAKYFHLNDDLHVLIEVFAPPAEAYARMGHALEEIKKFLIPDYNDEIRQAQLQELTYLNGGSENADVPVVRGKPTLRTRGVPAPAITRGRGGVTARPVGVVVPRGTPTPRGVLSTRGPVSRGRGLLTPRARGVPPTGYRPPPPPPTQETYGEYDYDDGYGTAYDEQSYDSYDNSYSTPAQSGADYYDYGHGLSEETYDSYGQEEWTNSRHKAPSARTAKGVYRDQPYGRY
- binding [2]: binds
- binding [3]: binds

B2: endogenous metadherin (LNCaP) (protein, UniProt Q86UE4 1-582)
chain: MAARSWQDELAQQAEEGSARLREMLSVGLGFLRTELGLDLGLEPKRYPGWVILVGTGALGLLLLFLLGYGWAAACAGARKKRRSPPRKREEAAAVPAAAPDDLALLKNLRSEEQKKKNRKKLSEKPKPNGRTVEVAEGEAVRTPQSVTAKQPPEIDKKNEKSKKNKKKSKSDAKAVQNSSRHDGKEVDEGAWETKISHREKRQQRKRDKVLTDSGSLDSTIPGIENTITVTTEQLTTASFPVGSKKNKGDSHLNVQVSNFKSGKGDSTLQVSSGLNENLTVNGGGWNEKSVKLSSQISAGEEKWNSVSPASAGKRKTEPSAWSQDTGDANTNGKDWGRSWSDRSIFSGIGSTAEPVSQSTTSDYQWDVSRNQPYIDDEWSGLNGLSSADPNSDWNAPAEEWGNWVDEERASLLKSQEPIPDDQKVSDDDKEKGEGALPTGKSKKKKKKKKKQGEDNSTAQDTEELEKEIREDLPVNTSKTRPKQEKAFSLKTISTSDPAEVLVKNSQPIKTLPPATSTEPSVILSKSDSDKSSSQVPPILQETDKSKSNTKQNSVPPSQTKSETSWESPKQIKKKKKARRET
- binding [3]: binds

From publication PMC6770463
